Source: publication PMC11959614

By UniProt entry, the sequences of proteins in these tests, tags left out.
UniProt P10591: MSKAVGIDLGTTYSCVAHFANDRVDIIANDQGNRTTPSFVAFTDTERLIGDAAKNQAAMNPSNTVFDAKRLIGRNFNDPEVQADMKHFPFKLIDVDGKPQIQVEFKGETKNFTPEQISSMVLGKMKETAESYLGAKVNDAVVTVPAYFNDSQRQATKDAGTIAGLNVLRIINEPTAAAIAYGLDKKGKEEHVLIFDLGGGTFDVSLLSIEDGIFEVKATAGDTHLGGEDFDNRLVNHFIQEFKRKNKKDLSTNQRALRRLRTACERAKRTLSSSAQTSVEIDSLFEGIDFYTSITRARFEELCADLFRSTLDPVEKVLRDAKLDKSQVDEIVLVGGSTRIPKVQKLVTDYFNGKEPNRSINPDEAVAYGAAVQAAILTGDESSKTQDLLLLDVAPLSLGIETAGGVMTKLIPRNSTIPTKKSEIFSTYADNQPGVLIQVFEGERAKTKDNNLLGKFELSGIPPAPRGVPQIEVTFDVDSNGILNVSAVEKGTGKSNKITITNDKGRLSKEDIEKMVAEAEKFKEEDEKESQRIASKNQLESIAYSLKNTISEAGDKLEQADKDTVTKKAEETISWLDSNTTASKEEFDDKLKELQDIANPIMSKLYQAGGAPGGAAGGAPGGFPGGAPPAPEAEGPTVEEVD
UniProt P22202: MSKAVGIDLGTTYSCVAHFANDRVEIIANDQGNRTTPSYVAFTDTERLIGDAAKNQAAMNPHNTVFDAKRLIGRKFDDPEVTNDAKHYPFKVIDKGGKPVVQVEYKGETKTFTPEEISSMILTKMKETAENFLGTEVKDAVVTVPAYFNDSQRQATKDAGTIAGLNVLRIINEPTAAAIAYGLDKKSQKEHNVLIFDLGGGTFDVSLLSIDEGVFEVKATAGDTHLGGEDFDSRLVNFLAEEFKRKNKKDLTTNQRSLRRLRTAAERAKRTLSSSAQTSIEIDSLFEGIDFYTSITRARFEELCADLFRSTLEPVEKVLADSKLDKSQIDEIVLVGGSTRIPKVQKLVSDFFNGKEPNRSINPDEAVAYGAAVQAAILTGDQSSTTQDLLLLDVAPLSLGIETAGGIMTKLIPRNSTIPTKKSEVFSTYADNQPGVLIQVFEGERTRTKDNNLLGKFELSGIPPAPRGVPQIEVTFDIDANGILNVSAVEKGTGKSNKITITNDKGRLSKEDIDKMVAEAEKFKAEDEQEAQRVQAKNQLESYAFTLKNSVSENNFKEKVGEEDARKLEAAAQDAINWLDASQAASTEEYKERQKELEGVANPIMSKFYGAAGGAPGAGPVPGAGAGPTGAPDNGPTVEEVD

B1: Get4 (protein, UniProt Q12125 1-312)
chain: MVPAESNAVQAKLAKTLQRFENKIKAGDYYEAHQTLRTIANRYVRSKSYEHAIELISQGALSFLKAKQGGSGTDLIFYLLEVYDLAEVKVDDISVARLVRLIAELDPSEPNLKDVITGMNNWSIKFSEYKFGDPYLHNTIGSKLLEGDFVYEAERYFMLGTHDSMIKYVDLLWDWLCQVDDIEDSTVAEFFSRLVFNYLFISNISFAHESKDIFLERFIEKFHPKYEKIDKNGYEIVFFEDYSDLNFLQLLLITCQTKDKSYFLNLKNHYLDFSQAYKSELEFLGQEYFNIVAPKQTNFLQDMMSGFLGGSK
B2: Sti1 (protein, UniProt P15705 1-589)
chain: MSLTADEYKQQGNAAFTAKDYDKAIELFTKAIEVSETPNHVLYSNRSACYTSLKKFSDALNDANECVKINPSWSKGYNRLGAAHLGLGDLDEAESNYKKALELDASNKAAKEGLDQVHRTQQARQAQPDLGLTQLFADPNLIENLKKNPKTSEMMKDPQLVAKLIGYKQNPQAIGQDLFTDPRLMTIMATLMGVDLNMDDINQSNSMPKEPETSKSTEQKKDAEPQSDSTTSKENSSKAPQKEESKESEPMEVDEDDSKIEADKEKAEGNKFYKARQFDEAIEHYNKAWELHKDITYLNNRAAAEYEKGEYETAISTLNDAVEQGREMRADYKVISKSFARIGNAYHKLGDLKKTIEYYQKSLTEHRTADILTKLRNAEKELKKAEAEAYVNPEKAEEARLEGKEYFTKSDWPNAVKAYTEMIKRAPEDARGYSNRAAALAKLMSFPEAIADCNKAIEKDPNFVRAYIRKATAQIAVKEYASALETLDAARTKDAEVNNGSSAREIDQLYYKASQQRFQPGTSNETPEETYQRAMKDPEVAAIMQDPVMQSILQQAQQNPAALQEHMKNPEVFKKIQTLIAAGIIRTGR
B3: Sec53 (enzyme, UniProt P07283 1-254)
chain: MSIAEFAYKEKPETLVLFDVDGTLTPARLTVSEEVRKTLAKLRNKCCIGFVGGSDLSKQLEQLGPNVLDEFDYSFSENGLTAYRLGKELASQSFINWLGEEKYNKLAVFILRYLSEIDLPKRRGTFLEFRNGMINVSPIGRNASTEERNEFERYDKEHQIRAKFVEALKKEFPDYGLTFSIGGQISFDVFPAGWDKTYCLQHVEKDGFKEIHFFGDKTMVGGNDYEIFVDERTIGHSVQSPDDTVKILTELFNL
B4: Paa1 (enzyme, UniProt Q12447 1-191)
chain: MASSSSTLPLHMYIRPLIIEDLKQILNLESQGFPPNERASEEIISFRLINCPELCSGLFIREIEGKEVKKETLIGHIMGTKIPHEYITIESMGKLQVESSNHIGIHSVVIKPEYQKKNLATLLLTDYIQKLSNQEIGNKIVLIAHEPLIPFYERVGFKIIAENTNVAKDKNFAEQKWIDMERELIKEEYDN
B5: Get5 (protein, UniProt Q12285 1-212)
chain: MSTSASGPEHEFVSKFLTLATLTEPKLPKSYTKPLKDVTNLGVPLPTLKYKYKQNRAKKLKLHQDQQGQDNAAVHLTLKKIQAPKFSIEHDFSPSDTILQIKQHLISEEKASHISEIKLLLKGKVLHDNLFLSDLKVTPANSTITVMIKPNPTISKEPEAEKSTNSPAPAPPQELTVPWDDIEALLKNNFENDQAAVRQVMERLQKGWSLAK
B6: Get3 (protein, UniProt Q12154 1-354)
chain: MDLTVEPNLHSLITSTTHKWIFVGGKGGVGKTTSSCSIAIQMALSQPNKQFLLISTDPAHNLSDAFGEKFGKDARKVTGMNNLSCMEIDPSAALKDMNDMAVSRANNNGSDGQGDDLGSLLQGGALADLTGSIPGIDEALSFMEVMKHIKRQEQGEGETFDTVIFDTAPTGHTLRFLQLPNTLSKLLEKFGEITNKLGPMLNSFMGAGNVDISGKLNELKANVETIRQQFTDPDLTTFVCVCISEFLSLYETERLIQELISYDMDVNSIIVNQLLFAENDQEHNCKRCQARWKMQKKYLDQIDELYEDFHVVKMPLCAGEIRGLNNLTKFSQFLNKEYNPITDGKVIYELEDKE
B7: Ybr137w (protein, UniProt P38276 1-179)
chain: MVVLDKKLLERLTSRKVPLEELEDMEKRCFLSTFTYQDAFDLGTYIRNAVKENFPEKPVAIDISLPNGHCLFRTVTYGGSALDNDFWIQRKKKTALRFGHSSFYMGCKKGDKTPEEKFFVDSKEYAFHGGAVLIQSERSDYPYACLTISGLKQEEDHLMAVSSLIAFANESLEEDLNLD
B8: Sse2 (protein, UniProt P32590 1-693)
chain: MSTPFGLDLGNNNSVLAVARNRGIDVVVNEVSNRSTPSLVGFGPRNRYLGESGKTKQTSNVKNTVENLKRIIGLKFKDPEFDIENKFFTSKLVQLKNGKVGVEVEFGGKTHVFSATQLTAMFIDKVKHTVQEETKSSITDVCLAVPVWYSEEQRYNIADAARIAGLNPVRIVNDVTAAAVSYGVFKNDLPGPEEKPRIIGLVDIGHSTYTCSIMAFRKGEMKVLGTAYDKHFGGRDFDRAITEHFADQFKDKYKIDIRKNPKAYNRILIAAEKLKKVLSANTTAPFSVESVMDDIDVSSQLSREELEELVEPLLKRVTYPITNALAQAKLTVNDIDFVEIIGGTTRIPVLKKSISDVFGKPLSSTLNQDEAVAKGAAFICAIHSPTLRVRPFKFEDIDPYSVSYTWDKQVDDEDRLEVFPANSSYPSTKLITLHRTGDFSMKAVYTHPSKLPKGTSTTIAKWSFTGVKVPKDQDFIPVKVKLRCDPSGLHIIENAYTTEDITVQEPVPLPEDAPEDAEPQFKEVTKTIKKDVLGMTAKTFALNPVELNDLIEKENELRNQDKLVAETEDRKNALEEYIYTLRAKLDDEYSDFASDAEKEKLKNMLATTENWLYGDGDDSTKAKYIAKYEELASLGNIIRGRYLAKEEEKRQALRANQETSKMNDIAEKLAEQRRARAASDDSDDNNDENMDLD
B9: Sis1 (protein, UniProt P25294 1-352)
chain: MVKETKLYDLLGVSPSANEQELKKGYRKAALKYHPDKPTGDTEKFKEISEAFEILNDPQKREIYDQYGLEAARSGGPSFGPGGPGGAGGAGGFPGGAGGFSGGHAFSNEDAFNIFSQFFGGSSPFGGADDSGFSFSSYPSGGGAGMGGMPGGMGGMHGGMGGMPGGFRSASSSPTYPEEETVQVNLPVSLEDLFVGKKKSFKIGRKGPHGASEKTQIDIQLKPGWKAGTKITYKNQGDYNPQTGRRKTLQFVIQEKSHPNFKRDGDDLIYTLPLSFKESLLGFSKTIQTIDGRTLPLSRVQPVQPSQTSTYPGQGMPTPKNPSQRGNLIVKYKVDYPISLNDAQKRAIDENF

biological target: T1, Sgt2-TEV–GFP (S. cerevisiae) (UniProt Q12118); experiment: affinity purification with mass spectrometry; Δsgt2 cells expressing Sgt2-TEV–GFP, glucose starved (4 h by results and legend); lysis in 50 mM Tris-HCl pH 7.4, 100 mM potassium acetate, 2 mM magnesium acetate, 0.5 mM DTT, 0.5% IGEPAL; GET body-enriched fraction by differential centrifugation; capture on GFP-Trap magnetic agarose beads at 4°C, elution by TEV protease; compared with Sgt2ΔTPR-TEV–GFP as control
T1 sequence: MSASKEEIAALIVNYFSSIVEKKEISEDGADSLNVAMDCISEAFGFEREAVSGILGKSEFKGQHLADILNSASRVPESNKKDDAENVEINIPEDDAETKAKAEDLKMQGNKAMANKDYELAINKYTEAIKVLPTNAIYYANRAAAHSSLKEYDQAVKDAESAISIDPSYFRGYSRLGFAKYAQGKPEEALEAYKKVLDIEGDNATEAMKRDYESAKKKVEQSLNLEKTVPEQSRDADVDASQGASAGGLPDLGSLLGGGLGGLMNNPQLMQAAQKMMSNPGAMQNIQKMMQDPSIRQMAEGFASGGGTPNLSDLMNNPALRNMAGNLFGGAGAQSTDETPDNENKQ

For Ssa1 (from UniProt P10591 1-642), which binding is on record?
The binding was “binds”.

For Ssa4 (from UniProt P22202 1-642), which binding is on record?
The binding was “binds”.

How did the binding turn out when B1 was run?
The binding was “binds”.

How did the binding turn out when B2 was run?
The binding was “binds”.

With B3 as the molecule, how does the binding read?
Its binding is “binds”.

Which binding does the source give for B4 here?
The binding was “binds”.

With B5 as the molecule, how does the binding read?
Its binding is “binds”.

With B6 as the molecule, how does the binding read?
Its binding is “binds”.

Which binding does the source give for B7 here?
Its binding is “binds”.

Which binding does the source give for B8 here?
The binding was “binds”.

B9 was tested. Which binding did it give?
The binding was “binds”.

No constants are given. Whether binding was seen depends on the method and setting. In cells and extracts the contact can be indirect. Here binding means that the protein was enriched with, or labelled near, the bait; the list need not be complete. Sequences can lack the tags named with a protein.
